The text below walks through data of PubChem BioAssay AID1656 (Sanford-Burnham Center for Chemical Genomics, 2009).

The other results are listed elsewhere or left out.

A short description of the experiment: oleate-induced lipid droplet accumulation in AML12 cells – imaging, high-throughput imaging, BODIPY stain, primary screen (AID 1656).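 Note: cells counted across two imaged fields per well.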 The following applies: AML12 mouse hepatocytes, oleate lipid droplets, measured here: cell count, cytotoxicity flag, at 6.5 µM.
In turn, `COc1ccc(OP(C)(=O)Nc2ccccn2)cc1` (stereo not given) registered a cell count of 746 cells.
In the case of `Cc1ccc(OP(=O)(Nc2nccs2)Oc2ccc(C)cc2)cc1`, the cell count was determined as 766 cells.
On to `CCN(/C(=N/P(=O)(N1CCOCC1)N1CCOCC1)N1CCOCC1)c1ccc(OC)cc1`, for which the cell count was found to be 723 cells.
The value for `COc1ccccc1OP(C)(=O)Nc1ccccc1Br` (stereo not given) was 714 cells; that for `CC(C)(C)c1ccc(OP(C)(=O)O)cc1` was 835 cells; that for `Nc1ccc([As](=O)(O)c2ccc(N)cc2)cc1` was 697 cells.
The value for `C[N+]1=C2C=CC=CC=C2SC12C([N+](=O)[O-])=CC([N+](=O)[O-])=C[C-]2[N+](=O)[O-]` (stereo not given) was 805 cells; that for `CN(C)C(=O)c1c([N+](=O)[O-])cc([N+](=O)[O-])cc1[N+](=O)[O-]` was 772 cells.
`CC(C)=N/N=C(\N)N[N+](=O)[O-]` showed a cell count of 654 cells.
As to `CN(C)C(=O)OCCc1n(C)cc[n+]1C`, the cell count is 629 cells.
In turn, `COc1ccc(C2=NCC(CBr)S2)cc1` (stereo not given) returned a cell count of 703 cells.
`COc1ccc(OP(C)(=O)Nc2ccc(Br)cc2)cc1` (stereo not given) gave a cell count of 610 cells.
The value for `Cc1ccc(NP(=O)(Oc2ccccc2)Oc2ccccc2)nc1` was 686 cells; that for `CCc1ccc(OP(C)(=O)Nc2cccnc2)cc1` (stereo not given) was 719 cells; that for `O=[N+]([O-])c1cc([N+](=O)[O-])c(CCNc2ccccc2)c([N+](=O)[O-])c1` was 752 cells.
On to `O=[N+]([O-])c1cccc2n[nH]nc12`, for which the cell count was determined as 789 cells.
Take `O=C(OCCCN1CCCC1)C(O)(c1ccccc1)C1CCCCC1` (stereo not given): the cell count was determined as 722 cells.
The value for `O=[N+]([O-])c1ncn(CCn2ncnc2[N+](=O)[O-])n1` was 699 cells; that for `CC(C)(C)C(=O)NC(Sc1ccncn1)C(Cl)(Cl)Cl` (stereo not given) was 681 cells.
Compound `O=C(O)CNc1ccc([As](=O)(O)O)cc1` had a cell count of 708 cells.
With `O=[N+]([O-])c1cccc(NC2=NCC(CBr)S2)c1` (stereo not given) the figure was 784 cells.
`CP(=O)(OC12CC3CC(CC(C3)C1)C2)OC12CC3CC(CC(C3)C1)C2` had a cell count of 762 cells.
The value for `CCOC(=O)c1ccc(NP(C)(=O)Oc2ccc(Cl)cc2)cc1` (stereo not given) was 631 cells; that for `O=C(Nc1cc([As](=O)(O)O)ccc1O)c1ccccc1` was 736 cells.
For the compound `CP(=S)(Nn1cnnc1)Oc1ccccc1` (stereo not given), the cell count came to 701 cells.
With `CCOC(=O)Nc1cccc([As](=O)(O)O)c1` the figure was 846 cells; with `O=P(Nc1ccccn1)(c1cccc2ccccc12)c1cccc2ccccc12`, 679 cells.
In turn, `Cc1cc(SC(NC=O)C(Cl)(Cl)Cl)ncn1` (stereo not given) returned a cell count of 678 cells.
With `COc1ccccc1OP(C)(=O)Nc1ccccc1` (stereo not given) the figure was 751 cells; with `CP(=O)(Nc1ccccc1Br)Oc1ccccc1` (stereo not given), 727 cells; with `O=[N+]([O-])c1ccc(Nc2ccc(Oc3ccc([N+](=O)[O-])cc3[N+](=O)[O-])cc2)c([N+](=O)[O-])c1`, 625 cells.
On to `CCOC(=O)Nc1ccc([As](=O)(O)O)c(O)c1`, for which the cell count turned out to be 742 cells.
The compound `CCCCOc1ccc(C(=O)NCC2(N3CCCCC3)CCCCC2)cc1OC` registered a cell count of 752 cells.
The value for `Cc1cc(SC(NC(=O)c2ccccc2)C(Cl)(Cl)Cl)nc(C(C)C)n1` (stereo not given) was 621 cells; that for `O=C(OC1CN2CCC1CC2)c1cccc([N+](=O)[O-])c1` (stereo not given) was 827 cells.
The value for `CCOC(=O)c1ccc(NC(=O)C(C)(CCl)SC)cc1` (stereo not given) was 690 cells; that for `CCOC(=O)c1ccc(NP(C)(=O)Oc2ccc(OC)cc2)cc1` (stereo not given) was 519 cells.
With `CCC(C)N(CC(C)C)C(=S)SC(NC(C)=O)C(Cl)(Cl)Cl` (stereo not given) the figure was 718 cells.
With `CP(=O)(Nc1ccccn1)Oc1ccc(Cl)cc1` (stereo not given), the cell count was found to be 777 cells.
`COP1(=S)c2c(C)nn(CCC#N)c2N=C(c2ccc(F)cc2)N1C` (stereo not given) came in with a cell count of 755 cells.
The value for `Cc1cccc(C)c1OP(C)(=O)Nc1ccc(SC(F)(F)F)cc1` (stereo not given) was 690 cells.
Turning to `CP(=O)(Oc1ccccc1)OC(c1ccccc1)C(F)(F)F` (stereo not given), the cell count is 673 cells.
With `O=C(COc1ccccc1)OC1CN2CCC1CC2` (stereo not given) the figure was 682 cells; with `CCc1ccc(OP(C)(=O)N2CCN(c3ccc([N+](=O)[O-])cc3)CC2)cc1` (stereo not given), 715 cells; with `Cc1cc(C)cc(OP(C)(=O)Nc2ccc(SC(F)(F)F)cc2)c1` (stereo not given), 688 cells.
With `O=C(Nc1ccncc1[N+](=O)[O-])c1ccc([N+](=O)[O-])cc1[N+](=O)[O-]`, the cell count is 832 cells.
The compound `COc1ccc(N/C(=N/P(=O)(N2CCOCC2)N2CCOCC2)N2CCOCC2)cc1` came in with a cell count of 704 cells.
The value for `Cc1c2c(nc3ccccc13)SC(C(Cl)Cl)C2` (stereo not given) was 572 cells; that for `Cc1cc(=O)[nH]c(N[N+](=O)[O-])n1` was 648 cells.
As for `CCN(CC)CCCOC(=O)C(O)(c1ccccc1)c1ccccc1`, the cell count was found to be 733 cells.
Consider `COc1ccc2nc(NP(=O)(c3ccccc3)c3ccccc3)sc2c1`, for which the cell count came out at 709 cells.
The value for `COc1cc(I)ccc1[As](=O)(O)O` was 647 cells; that for `CCOC(=O)c1ccc(NP(C)(=O)Oc2ccccc2)cc1` (stereo not given) was 732 cells.
On to `ClCCSc1nnc(-c2cccnc2)o1`, for which the cell count was 745 cells.
The value for `Cc1ccc(NP(C)(=O)Oc2ccccc2)c(C)c1` (stereo not given) was 772 cells; that for `CC(C)c1ccc(OP(=O)(Nc2ccccn2)Oc2ccccc2F)cc1` (stereo not given) was 739 cells; that for `COc1ccccc1OP(C)(=O)Nc1cc(Cl)ccc1C` (stereo not given) was 785 cells.
The compound `CC(C)NC(=O)NP(=O)(Oc1ccccc1)Oc1ccccc1` showed a cell count of 703 cells.
With `COc1ccc(OP(C)(=O)Nc2cccc(F)c2)cc1` (stereo not given) the figure was 751 cells; with `O=[N+]([O-])c1cc([N+](=O)[O-])c(-c2ccn[nH]2)s1`, 701 cells.
Compound `Cc1cc(C)cc(OP(C)(N)=O)c1` (stereo not given) had a cell count of 681 cells.
With `O=[As](O)(c1ccc(O)cc1)c1ccccc1O` the figure was 707 cells; with `C[As](=O)(O)c1cccc(C(=O)O)c1`, 745 cells; with `Cc1ccc(OP(=O)(Nc2ccc([N+](=O)[O-])cn2)Oc2ccc(C)cc2)cc1`, 743 cells.
For the compound `CC(C)(C)c1ccc(OP(C)(=O)Nc2ccc(SC(F)(F)F)cc2)cc1` (stereo not given), the cell count amounted to 667 cells.
The compound `Cc1cccc(C)c1OP(C)(N)=O` (stereo not given) had a cell count of 727 cells.
As for `O=[N+]([O-])c1ccc2c(c1)C=Nc1ccccc1O2`, the cell count was determined as 714 cells.
In the case of `Cc1ccc2nc3c(c(C)c2c1)CC(C(Cl)Cl)S3` (stereo not given), the cell count stood at 652 cells.
The value for `NC(=O)Nc1ccc([As](=O)(O)O)cc1` was 691 cells; that for `CN(C(=O)Cc1ccccc1)[C@@H]1CC[C@]2(CCCO2)C[C@H]1N1CCCC1` was 730 cells; that for `O=[N+]([O-])c1ccc2c(c1)nnn2O` was 751 cells.
For `CC1=NCCc2c1[nH]c1ccccc21.O=[N+]([O-])c1cc([N+](=O)[O-])c(O)c([N+](=O)[O-])c1`, the cell count was found to be 523 cells.
With `CCOP1(=S)c2c(C)nn(CCC#N)c2N=C(c2ccccc2F)N1C` (stereo not given) the figure was 697 cells; with `O=C(O)c1cccc(Nc2c([N+](=O)[O-])cc([N+](=O)[O-])cc2[N+](=O)[O-])c1`, 690 cells.
With `O=P(Nc1nccs1)(Oc1ccccc1)Oc1ccccc1` the figure was 780 cells.
